## Assay results

By UniProt entry, the sequences of proteins in these tests, tags left out.
UniProt P04637, whole entry, target on record: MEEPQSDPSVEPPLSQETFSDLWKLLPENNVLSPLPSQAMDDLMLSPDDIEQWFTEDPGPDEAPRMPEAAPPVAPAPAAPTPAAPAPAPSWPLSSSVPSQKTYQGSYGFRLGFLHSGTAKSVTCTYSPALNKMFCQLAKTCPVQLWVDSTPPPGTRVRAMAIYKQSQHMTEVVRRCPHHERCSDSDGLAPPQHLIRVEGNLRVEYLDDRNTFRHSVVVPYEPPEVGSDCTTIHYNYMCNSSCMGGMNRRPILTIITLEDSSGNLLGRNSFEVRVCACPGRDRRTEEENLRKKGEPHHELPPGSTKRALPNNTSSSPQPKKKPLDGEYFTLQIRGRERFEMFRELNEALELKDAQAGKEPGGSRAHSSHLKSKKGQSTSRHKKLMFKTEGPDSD

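Human HCT116 colon-derived cells with a beta-lactamase reporter linked to p53; the blue-to-green emission ratio is read about 16 hours after compound addition. The potency comes from a curve fitted over a dilution series, but the concentrations used are not stated here. The number is the AC50, the concentration giving half of the fitted maximal signal rise; lower values mean stronger potency. Inconclusive means a continuous hit score below zero, meaning the response went the wrong way; at least 0.9 counts as active, and between zero and 0.9 as inactive.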

Values are in nM. Every entry below has the call inconclusive. These entries are mostly ones the record files as inconclusive; other results of the assay are not listed here. Activity scores are not listed here.

Compound | AC50 (nM)
CCOc1ccc(N)c([N+](=O)[O-])c1 | 46082
CC(=O)C1=C(C)[C@@H]2C[C@@]3(C1)[C@H](C)CC[C@H]3C2(C)C | 57930
CCCCNC(=O)NS(=O)(=O)c1ccc(N)cc1 | 23041
CCCCCCCCSCCO | 70461
COC(=O)/C=C\C(=O)OC | 46036
CCOC(=O)Cc1cccc2ccccc12 | 46082
CCc1cccc(CC)c1N | 46414
Fc1ccc(Br)cc1 | 46465
CC(=O)Nc1ccc(CC(=O)O)cc1 | 46082
Cc1cccc(C)c1O | 46659
CCCCC(CC)COC(=O)CCCCCCCCC(=O)OCC(CC)CCCC (centres unmarked) | 46084
C=CCCCCCCCCCC | 46084
CC(C)CCCCCCOC(=O)c1ccccc1C(=O)OCCCCCCC(C)C | 85469
CN(C)CCC#N | 47094
Cc1cc(Cl)ccc1OC(C)C(=O)O (centres unmarked) | 46082
OCCCc1ccccc1 | 23041
O=S(=O)(O)CCCN1CCOCC1 | 46082
CC(C#N)(CCC(=O)O)N=NC(C)(C#N)CCC(=O)O (centres unmarked) | 46083
Cc1cc(CCC(=O)OCCOCCOCCOC(=O)CCc2cc(C)c(O)c(C(C)(C)C)c2)cc(C(C)(C)C)c1O | 67222
Nc1cccc2ccccc12 | 82865
Cc1ccc2c(c1)C(=O)OC2=O | 46083
CC(=O)C1(C)CC2=C(CCCC2(C)C)CC1C (centres unmarked) | 46084
CCCCCCCCCCCC(=O)OC | 75297
CCCCOCCOCCSC#N | 28110
CNC(=S)NC | 46082
CCC(C)c1nccnc1OC (centres unmarked) | 87194

The results are deposited in PubChem (AID2283596; EPA ToxCast, 2025).